Assay results from patent publication US20130210057A1, “USE OF LABEL-FREE BIOSENSORS TO UNDERSTAND AND IDENTIFY TREATMENT FOR CANCER” (CORNING INCORPORATED, priority 2012, published 2013).
At least one compound was matched to its structure with a doubt left.

Tests used:
Assay type in all cases: cell-based, human
HCT116 PTEN null cells = assay: cAMP-Glo assay; details: 15 minutes incubation
Method: (§1) Cells were cultured in the McCoy's 5a complete growth medium overnight. The next day cAMP-Glo assay was performed according to manufacturer's instruction (Promega, Cat# V1502). Briefly, cell culture medium was removed by flipping the plate. […] Luminescence was measured using Tecan Salim II plate reader.
(§2) To screen endogenous receptors and their coupled signaling pathways, we first assembled a GPCR agonist focused library (Table 1). The library consists of 120 GPCR agonists covering over 150 known GPCRs, based on their known pharmacology including polypharmacology. For small molecule chemical agonists, the dose used was 10 micromolar. For peptide agonists, the dose used was 1 micromolar. For lipid agonists, the dose used was also 1 micromolar. For both peptides and lipids, these agonists were suspended in a solution containing 0.05% bovine […] to increase their stability.
(§3) cAMP assays were employed to investigate endogenous Gs-coupled receptors. FIG. 2 is a graph illustrating cAMP accumulation induced by GPCR agonists. The percentage of cAMP level after normalized to the forskolin-induced cAMP increase was plotted as a function of GPCR agonists. PCT116 parental (squares) was compared with HCT116-PTEN Null (diamonds) cell line.

HCT116 parental cells = assay: cAMP-Glo assay; details: 15 minutes incubation
Method: as §1, §2, §3

[1] = test system: HCT116-PTEN Null cell line; assay: Label-free RWG biosensor DMR assay; details: for sensitivity of kinase inhibitor drug-induced DMR to PTEN deletion: PTEN null vs parental
Excerpt: (§4) EPIC® beta version wavelength interrogation system (Corning Inc., NY) was used for whole cell sensing. This system consists of a temperature-control unit, an optical detection unit, and an on-board liquid handling unit with robotics. The detection unit is centered on integrated fiber optics, and enables kinetic measures of cellular responses with a time interval of ˜15 sec. Also EPIC® commercial systems were used, with a liquid handler accessory attached to EPIC® reader system. Also, an Epic® RWG imager can be used.
(§5) The resonant waveguide grating (RWG) biosensor is capable of detecting minute changes in local index of refraction near the sensor surface and the waveguide thin film having gratings provide a cell culture surface. Since the local index of refraction within a cell is a function of density and its distribution of biomass (e.g., proteins, molecular complexes), the biosensor exploits its evanescent wave to non-invasively detect ligand-induced Dynamic Mass Redistribution (DMR) in native cells. When a cell is stimulated, it responds. That response is a redistribution of biomass in the cell. Upon stimulation, proteins, protein complexes, and/or organelles in the cells move. The evanescent wave extends into the cells and exponentially decays over distance, leading to a characteristic sensing depth of ˜150 nm. Any optical response mediated through receptor activation only represents an average over the portion of the cell that the evanescent wave is sampling. The aggregation of many cellular events downstream to the receptor activation leads to a DMR signal having characteristic kinetics and amplitudes.
(§6) All assays were carried out at a controlled temperature (28° C.). At least two independent sets of experiments, each with at least three replicates, were performed.

[2] = test system: HCT116 parental cell line; assay: Label-free RWG biosensor DMR assay; details: 16 μM
Excerpt: as §4, §5, §6

SMILES | kinase inhibitor drug-induced DMR signal [2] | sensitivity of kinase inhibitor drug-induced DMR to PTEN deletion ([1]; 16 μM) | further results
C=C[C@@]1(C)CC(=O)[C@]2(O)[C@@]3(C)[C@@H](O)CCC(C)(C)[C@@H]3[C@H](O)[C@H](OC(C)=O)[C@@]2(C)O1 [forskolin] |  |  | cAMP accumulation (normalized to forskolin-induced cAMP increase) (HCT116 PTEN null cells): significant cAMP accumulation; cAMP accumulation (normalized to forskolin-induced cAMP increase) (HCT116 parental cells): significant cAMP accumulation; agonist DMR in PTEN deleted cell line compared to parental cell line (sensitivity to PTEN deletion) ([1]; 10 μM agonist (EGF, IGF1 1 μM)): affected
Cc1ccc(Nc2nccc(N(C)c3ccc4c(C)n(C)nc4c3)n2)cc1S(N)(=O)=O [pazopanib] | did not result in any detectable DMR |  | kinase inhibitor drug-induced DMR signal ([1]; HCT116-PTEN null, 16 μM): did not result in any detectable DMR
CO[C@H]1C[C@@H]2CC[C@@H](C)[C@@](O)(O2)C(=O)C(=O)N2CCCC[C@H]2C(=O)O[C@H]([C@H](C)C[C@@H]2CC[C@@H](O)[C@H](OC)C2)CC(=O)[C@H](C)/C=C(\C)[C@@H](O)[C@@H](OC)C(=O)[C@H](C)C[C@H](C)/C=C/C=C/C=C/1C [sirolimus] | detectable DMR | suppressed or decreased the kinetics | 
CCN(CC)CCNC(=O)c1c(C)[nH]c(/C=C2\C(=O)Nc3ccc(F)cc32)c1C [sunitinib] |  | sensitive | 
